Results are given in words; binding and its absence hold for the method and conditions named. For some of these results: A result given as binding can be weak or reduced; the word gives no strength.
B1: Y2h clone 11, RanBP5 (protein, human, UniProt O00410 2-1097, looked up)
chain: AAAAAEQQQFYLLLGNLLSPDNVVRKQAEETYENIPGQSKITFLLQAIRNTTAAEEARQMAAVLLRRLLSSAFDEVYPALPSDVQTAIKSELLMIIQMETQSSMRKKVCDIAAELARNLIDEDGNNQWPEGLKFLFDSVSSQNVGLREAALHIFWNFPGIFGNQQQHYLDVIKRMLVQCMQDQEHPSIRTLSARATAAFILANEHNVALFKHFADLLPGFLQAVNDSCYQNDDSVLKSLVEIADTVPKYLRPHLEATLQLSLKLCGDTSLNNMQRQLALEVIVTLSETAAAMLRKHTNIVAQTIPQMLAMMVDLEEDEDWANADELEDDDFDSNAVAGESALDRMACGLGGKLVLPMIKEHIMQMLQNPDWKYRHAGLMALSAIGEGCHQQMEGILNEIVNFVLLFLQDPHPRVRYAACNAVGQMATDFAPGFQKKFHEKVIAALLQTMEDQGNQRVQAHAAAALINFTEDCPKSLLIPYLDNLVKHLHSIMVLKLQELIQKGTKLVLEQVVTSIASVADTAEEKFVPYYDLFMPSLKHIVENAVQKELRLLRGKTIECISLIGLAVGKEKFMQDASDVMQLLLKTQTDFNDMEDDDPQISYMISAWARMCKILGKEFQQYLPVVMGPLMKTASIKPEVALLDTQDMENMSDDDGWEFVNLGDQQSFGIKTAGLEEKSTACQMLVCYAKELKEGFVEYTEQVVKLMVPLLKFYFHDGVRVAAAESMPLLLECARVRGPEYLTQMWHFMCDALIKAIGTEPDSDVLSEIMHSFAKCIEVMGDGCLNNEHFEELGGILKAKLEEHFKNQELRQVKRQDEDYDEQVEESLQDEDDNDVYILTKVSDILHSIFSSYKEKVLPWFEQLLPLIVNLICPHRPWPDRQWGLCIFDDVIEHCSPASFKYAEYFLRPMLQYVCDNSPEVRQAAAYGLGVMAQYGGDNYRPFCTEALPLLVRVIQSADSKTKENVNATENCISAVGKIMKFKPDCVNVEEVLPHWLSWLPLHEDKEEAVQTFNYLCDLIESNHPIVLGPNNTNLPKIFSIIAEGEMHEAIKHEDPCAKRLANVVRQVQTSGGLWTECIAQLSPEQQAAIQELLNSA
B2: Y2h clone 21, TRIP9/HuIκBβ2 (protein, human, UniProt Q15653-2 1-338, looked up)
chain: MAGVACLGKAADADEWCDSGLGSLGPDAAAPGGPGLGAELGPGLSWAPLVFGYVTEDGDTALHLAVIHQHEPFLDFLLGFSAGTEYMDLQNDLGQTALHLAAILGETSTVEKLYAAGAGLCVAERRGHTALHLACRVGAHACARALLQPRPRRPREAPDTYLAQGPDRTPDTNHTPVALYPDSDLEKEEEESEEDWKLQLEAENYEGHTPLHVAVIHKDVEMVRLLRDAGADLDKPEPTCGRSPLHLAVEAQAADVLELLLRAGANPAARMYGGRTPLGSAMLRPNPILARLLRAHGAPEPEGEDEKSGPCSSSSDSDSGDEGVSQEERQGSPAGGSG
B3: Y2H14, IKK binding protein (protein)
chain: CGLPLKEGALRPSYDRKSDRPVYEGPSMFGGERRTYPEERMPLPAPSLSHQPPPAPRVEKKPESKNVDDILKPPGRESRPERIVVIMRGLPGSGKTHVAKLIRDKEVEFGGPAPRVLSLDDYFITEVEKEEKDPDSGKKVKKKVREYEYEAEMEETYRTSMFKTFKKTLDDGFFPFIILDAINDRVRHFDQFWSAAKTKGFEVYLAEMSADNQTCGKRNIHGRKLKEINKMADHWETAPRHMMRLDIRSLLQDAAIEEVEMEDFDANIEEQKEEKKDAEEEESELGYIPKSKWEMDTSEAKLDKLDGLRTGTKRKRDWEAIASRMEDYLQLPDDYDTRASEPGKKRVRWADLEEKKDADRKRAIGFVVGQTDWEKITDESGHLAEKALNRTKYI

Assays:
analogous IKKβ bait [1] = assay: yeast two-hybrid, colony growth
[2] = molecular target: bait vector harboring the IKKα Helix-Loop-Helix domain; assay: yeast two-hybrid, colony growth
[3] = molecular target: bait vector harboring the IKKα Leucine Zipper domain; assay: yeast two-hybrid, colony growth
analogous IKKβ bait [4] = assay: yeast two-hybrid

binding (analogous IKKβ bait [1])	binding [2]	binding [3]	binding (analogous IKKβ bait [4])	Binder
binds	no binding	no binding		B1
binds	no binding	no binding		B2
binds	no binding	no binding	binds	B3

Source: US6365722
